The text below walks through data of patent publication US20050037963A1.

By UniProt entry, the sequences of proteins in these tests, tags left out. Where a name states a change or a piece, a line headed by the entry shows the natural chain unless it says otherwise. Residues count along the entry.
UniProt Q05397, residues 2-1052: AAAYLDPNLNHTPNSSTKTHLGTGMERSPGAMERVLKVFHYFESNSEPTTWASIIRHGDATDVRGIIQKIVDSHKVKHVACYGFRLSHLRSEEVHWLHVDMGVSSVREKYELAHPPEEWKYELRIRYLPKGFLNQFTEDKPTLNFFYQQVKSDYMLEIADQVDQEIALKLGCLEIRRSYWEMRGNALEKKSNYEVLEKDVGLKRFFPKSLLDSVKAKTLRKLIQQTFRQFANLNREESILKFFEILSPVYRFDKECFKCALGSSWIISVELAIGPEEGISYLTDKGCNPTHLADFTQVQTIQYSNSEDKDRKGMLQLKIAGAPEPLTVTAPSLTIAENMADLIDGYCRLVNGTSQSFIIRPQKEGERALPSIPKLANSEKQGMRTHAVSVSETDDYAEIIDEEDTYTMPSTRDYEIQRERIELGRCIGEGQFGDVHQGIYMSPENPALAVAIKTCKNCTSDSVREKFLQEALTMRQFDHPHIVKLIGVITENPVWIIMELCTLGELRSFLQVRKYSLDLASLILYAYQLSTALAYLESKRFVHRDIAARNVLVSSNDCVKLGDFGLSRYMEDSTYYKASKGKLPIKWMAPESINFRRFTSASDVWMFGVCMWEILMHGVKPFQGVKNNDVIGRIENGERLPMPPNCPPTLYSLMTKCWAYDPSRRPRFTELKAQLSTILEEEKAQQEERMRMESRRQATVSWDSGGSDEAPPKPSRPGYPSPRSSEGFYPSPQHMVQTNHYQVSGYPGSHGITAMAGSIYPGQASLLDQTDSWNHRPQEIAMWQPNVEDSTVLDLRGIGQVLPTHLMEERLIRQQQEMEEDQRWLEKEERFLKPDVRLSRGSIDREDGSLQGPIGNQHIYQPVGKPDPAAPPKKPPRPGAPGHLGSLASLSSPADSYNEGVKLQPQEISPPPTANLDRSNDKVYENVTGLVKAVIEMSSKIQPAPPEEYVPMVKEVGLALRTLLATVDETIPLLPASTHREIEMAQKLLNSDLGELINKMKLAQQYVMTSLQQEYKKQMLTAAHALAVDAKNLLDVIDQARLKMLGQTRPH
UniProt P34152, residues 2-1052: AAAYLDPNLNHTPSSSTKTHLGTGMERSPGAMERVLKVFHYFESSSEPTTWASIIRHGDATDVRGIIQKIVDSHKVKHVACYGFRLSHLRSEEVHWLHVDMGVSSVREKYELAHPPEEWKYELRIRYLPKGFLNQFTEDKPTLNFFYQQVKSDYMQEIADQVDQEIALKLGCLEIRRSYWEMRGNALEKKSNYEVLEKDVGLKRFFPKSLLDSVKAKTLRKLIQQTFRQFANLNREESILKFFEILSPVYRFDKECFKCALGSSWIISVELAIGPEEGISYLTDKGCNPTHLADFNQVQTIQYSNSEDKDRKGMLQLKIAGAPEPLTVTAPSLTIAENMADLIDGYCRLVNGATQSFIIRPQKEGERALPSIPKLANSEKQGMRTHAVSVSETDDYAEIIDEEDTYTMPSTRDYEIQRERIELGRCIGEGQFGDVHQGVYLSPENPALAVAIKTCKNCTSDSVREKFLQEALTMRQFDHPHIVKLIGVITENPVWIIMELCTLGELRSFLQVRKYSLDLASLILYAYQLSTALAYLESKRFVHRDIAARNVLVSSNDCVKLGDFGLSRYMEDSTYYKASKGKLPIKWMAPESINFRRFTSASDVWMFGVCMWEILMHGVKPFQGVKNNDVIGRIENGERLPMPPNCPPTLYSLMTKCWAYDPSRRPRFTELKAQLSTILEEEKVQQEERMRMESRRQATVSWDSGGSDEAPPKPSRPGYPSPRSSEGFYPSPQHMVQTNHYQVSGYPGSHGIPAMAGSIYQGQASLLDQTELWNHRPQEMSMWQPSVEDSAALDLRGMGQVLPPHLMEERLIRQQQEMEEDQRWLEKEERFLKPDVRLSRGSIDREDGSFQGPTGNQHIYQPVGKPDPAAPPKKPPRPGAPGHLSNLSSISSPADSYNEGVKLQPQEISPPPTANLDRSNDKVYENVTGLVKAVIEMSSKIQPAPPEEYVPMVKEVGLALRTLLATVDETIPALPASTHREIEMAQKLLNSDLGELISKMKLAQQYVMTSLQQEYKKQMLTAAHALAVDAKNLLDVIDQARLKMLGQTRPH
UniProt O35346, residues 2-1055: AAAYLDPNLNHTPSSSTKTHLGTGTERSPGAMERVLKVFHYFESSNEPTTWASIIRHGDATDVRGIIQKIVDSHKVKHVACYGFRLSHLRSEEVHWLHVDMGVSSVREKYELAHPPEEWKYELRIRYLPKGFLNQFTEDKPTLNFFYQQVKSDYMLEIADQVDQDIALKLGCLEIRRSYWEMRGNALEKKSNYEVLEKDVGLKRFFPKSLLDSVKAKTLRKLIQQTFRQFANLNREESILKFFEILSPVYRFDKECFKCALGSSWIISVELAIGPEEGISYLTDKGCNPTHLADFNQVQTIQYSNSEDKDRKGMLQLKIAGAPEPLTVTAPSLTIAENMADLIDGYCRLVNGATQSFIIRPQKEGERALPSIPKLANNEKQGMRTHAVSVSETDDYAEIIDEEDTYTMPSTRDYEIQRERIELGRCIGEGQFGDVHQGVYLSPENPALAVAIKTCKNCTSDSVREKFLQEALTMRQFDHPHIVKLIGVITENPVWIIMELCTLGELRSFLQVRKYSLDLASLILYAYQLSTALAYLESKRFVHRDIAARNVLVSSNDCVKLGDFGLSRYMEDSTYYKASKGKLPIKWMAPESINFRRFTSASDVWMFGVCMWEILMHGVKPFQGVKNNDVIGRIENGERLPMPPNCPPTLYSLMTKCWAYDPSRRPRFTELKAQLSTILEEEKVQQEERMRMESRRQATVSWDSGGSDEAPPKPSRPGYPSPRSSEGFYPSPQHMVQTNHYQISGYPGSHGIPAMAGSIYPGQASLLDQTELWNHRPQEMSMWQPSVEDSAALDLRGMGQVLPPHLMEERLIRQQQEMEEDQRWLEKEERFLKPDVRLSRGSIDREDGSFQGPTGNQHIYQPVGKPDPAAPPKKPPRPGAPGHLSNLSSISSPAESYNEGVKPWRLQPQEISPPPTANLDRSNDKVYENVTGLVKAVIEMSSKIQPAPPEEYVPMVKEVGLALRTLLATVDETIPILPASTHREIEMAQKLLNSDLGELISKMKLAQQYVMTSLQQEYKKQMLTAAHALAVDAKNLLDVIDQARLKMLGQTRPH
UniProt Q8TDY2: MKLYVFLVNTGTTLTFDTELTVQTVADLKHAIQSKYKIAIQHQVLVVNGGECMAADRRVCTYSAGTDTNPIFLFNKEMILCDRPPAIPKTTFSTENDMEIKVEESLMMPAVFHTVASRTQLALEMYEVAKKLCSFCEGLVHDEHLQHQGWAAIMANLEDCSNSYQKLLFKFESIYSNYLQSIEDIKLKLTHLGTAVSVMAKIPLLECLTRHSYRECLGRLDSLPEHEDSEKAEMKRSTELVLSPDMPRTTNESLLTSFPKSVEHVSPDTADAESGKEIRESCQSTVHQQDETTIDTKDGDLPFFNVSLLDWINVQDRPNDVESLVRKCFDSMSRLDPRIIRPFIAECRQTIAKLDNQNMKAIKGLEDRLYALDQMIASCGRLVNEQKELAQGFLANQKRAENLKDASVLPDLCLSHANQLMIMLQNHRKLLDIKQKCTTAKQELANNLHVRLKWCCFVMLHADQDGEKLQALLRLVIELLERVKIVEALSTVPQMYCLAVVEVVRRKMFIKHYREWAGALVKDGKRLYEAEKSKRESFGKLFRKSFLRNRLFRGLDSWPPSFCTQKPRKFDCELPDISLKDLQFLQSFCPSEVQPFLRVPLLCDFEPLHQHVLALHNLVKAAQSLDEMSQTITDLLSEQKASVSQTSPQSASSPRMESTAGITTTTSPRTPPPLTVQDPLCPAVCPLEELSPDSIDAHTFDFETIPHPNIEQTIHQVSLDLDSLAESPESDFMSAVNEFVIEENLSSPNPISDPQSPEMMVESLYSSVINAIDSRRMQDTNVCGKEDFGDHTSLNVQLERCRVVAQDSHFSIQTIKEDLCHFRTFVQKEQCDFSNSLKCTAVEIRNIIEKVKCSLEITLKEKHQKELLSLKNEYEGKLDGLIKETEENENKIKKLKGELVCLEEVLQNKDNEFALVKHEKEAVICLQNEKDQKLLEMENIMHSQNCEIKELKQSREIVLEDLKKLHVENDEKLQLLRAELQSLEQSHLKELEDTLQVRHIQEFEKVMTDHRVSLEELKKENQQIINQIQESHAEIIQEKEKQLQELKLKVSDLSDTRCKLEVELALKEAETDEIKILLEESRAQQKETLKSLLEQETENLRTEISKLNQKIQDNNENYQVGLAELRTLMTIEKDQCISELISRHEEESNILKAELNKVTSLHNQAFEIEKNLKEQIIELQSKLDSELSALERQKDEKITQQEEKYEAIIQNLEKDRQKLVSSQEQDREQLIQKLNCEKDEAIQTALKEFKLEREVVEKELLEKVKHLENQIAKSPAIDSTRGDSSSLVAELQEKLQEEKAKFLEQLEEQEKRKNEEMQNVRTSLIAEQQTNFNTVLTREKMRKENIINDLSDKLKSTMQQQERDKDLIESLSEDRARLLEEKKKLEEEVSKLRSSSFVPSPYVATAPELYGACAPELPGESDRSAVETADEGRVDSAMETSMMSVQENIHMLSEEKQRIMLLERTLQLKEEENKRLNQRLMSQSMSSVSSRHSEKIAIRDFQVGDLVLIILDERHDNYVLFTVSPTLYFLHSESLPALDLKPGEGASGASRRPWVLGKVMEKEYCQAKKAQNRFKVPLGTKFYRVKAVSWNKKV
UniProt Q9ESK9: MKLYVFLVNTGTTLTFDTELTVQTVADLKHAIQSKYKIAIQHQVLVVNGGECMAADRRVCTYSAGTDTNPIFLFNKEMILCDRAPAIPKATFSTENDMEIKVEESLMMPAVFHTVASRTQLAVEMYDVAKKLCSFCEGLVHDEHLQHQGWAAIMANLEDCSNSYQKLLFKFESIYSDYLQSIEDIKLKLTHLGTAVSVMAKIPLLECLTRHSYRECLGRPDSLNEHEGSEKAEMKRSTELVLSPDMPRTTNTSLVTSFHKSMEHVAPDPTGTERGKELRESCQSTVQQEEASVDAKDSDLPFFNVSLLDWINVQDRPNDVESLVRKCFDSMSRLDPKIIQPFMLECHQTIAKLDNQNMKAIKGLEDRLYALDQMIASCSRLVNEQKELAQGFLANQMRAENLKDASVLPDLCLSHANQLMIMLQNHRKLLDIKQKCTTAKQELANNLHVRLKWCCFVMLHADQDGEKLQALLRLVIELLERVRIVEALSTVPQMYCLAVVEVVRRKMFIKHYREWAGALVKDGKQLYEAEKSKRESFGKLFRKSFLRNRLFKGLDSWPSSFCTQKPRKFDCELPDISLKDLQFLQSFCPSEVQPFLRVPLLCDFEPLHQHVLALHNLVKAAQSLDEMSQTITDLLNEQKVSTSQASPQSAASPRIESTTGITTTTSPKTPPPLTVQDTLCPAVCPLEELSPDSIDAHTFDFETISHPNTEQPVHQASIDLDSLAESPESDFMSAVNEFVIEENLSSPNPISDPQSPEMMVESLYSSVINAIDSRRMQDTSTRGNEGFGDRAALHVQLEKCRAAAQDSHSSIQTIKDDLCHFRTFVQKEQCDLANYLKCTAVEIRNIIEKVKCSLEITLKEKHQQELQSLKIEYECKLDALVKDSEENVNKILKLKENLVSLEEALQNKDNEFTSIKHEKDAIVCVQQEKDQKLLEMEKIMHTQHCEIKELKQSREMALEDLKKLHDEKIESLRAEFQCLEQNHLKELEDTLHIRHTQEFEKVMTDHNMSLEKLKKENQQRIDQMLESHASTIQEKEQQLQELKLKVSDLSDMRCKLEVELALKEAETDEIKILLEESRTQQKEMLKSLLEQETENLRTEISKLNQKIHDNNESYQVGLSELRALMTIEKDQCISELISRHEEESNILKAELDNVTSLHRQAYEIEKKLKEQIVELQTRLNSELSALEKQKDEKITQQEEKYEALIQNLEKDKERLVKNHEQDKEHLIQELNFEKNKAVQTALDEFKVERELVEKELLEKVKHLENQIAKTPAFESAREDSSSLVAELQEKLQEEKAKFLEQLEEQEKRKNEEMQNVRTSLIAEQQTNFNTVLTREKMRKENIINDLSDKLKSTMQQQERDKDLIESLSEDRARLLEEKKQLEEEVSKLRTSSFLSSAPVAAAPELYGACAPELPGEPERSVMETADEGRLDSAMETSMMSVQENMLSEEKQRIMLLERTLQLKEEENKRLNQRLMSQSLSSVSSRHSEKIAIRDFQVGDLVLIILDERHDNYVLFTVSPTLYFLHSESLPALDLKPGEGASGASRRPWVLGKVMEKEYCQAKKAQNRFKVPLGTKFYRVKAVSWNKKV

In assay [1] the target is endogenous focal adhesion kinase (FAK) of human cells (human) (UniProt Q05397). The assay can be described thus: co-immunoprecipitation of endogenous proteins, 293 cells.
Assay [2] has the same target. The assay can be described thus: co-immunoprecipitation (anti-FIP200N IP, anti-FAK blot), MDA-MB231 cell lysates.
Assay [3] shares this target. The assay can be described thus: co-immunoprecipitation of endogenous proteins (anti-FIP200N IP, anti-FAK blot), MDA-MB231 cell lysates.
For assay [4], the target named is endogenous FAK of NIH 3T3 cells (mouse) (UniProt P34152). The assay can be described thus: co-immunoprecipitation of endogenous proteins, NIH 3T3 cells.
Assay [5] has as its target endogenous FAK of rat aortic smooth muscle cells (rat) (UniProt O35346). The assay can be described thus: co-immunoprecipitation of endogenous proteins, rat aortic smooth muscle cells.

No constants are given. Whether binding was seen depends on the method and setting. Binding seen in cells or lysates may run through a third protein. Some results given as binding are weak or reduced against the parent protein; the word gives no strength.

As for “endogenous FIP200 (FAK family kinase-interacting protein of 200 kDa) of human cells (from UniProt Q8TDY2 1-1594)”, the binding result in assay [1], in assay [2] and in assay [3] was “binds” each time.

With “endogenous FIP200 of NIH 3T3 cells (from UniProt Q9ESK9 1-1588)”, in assay [4], the binding result was “binds”.

“endogenous FIP200 of rat aortic smooth muscle cells (from UniProt D3ZHK4 1-1588)”: the binding entry in assay [5] is on record as “binds”.
